# Reference: PubChem BioAssay AID1347076 (National Center for Advancing Translational Sciences (NCATS), 2019)
# In all, about 400,000 compounds went through this assay and about 13,000 (3.2%) were called active. The inconclusive results got no clear call from the source; some entries with a clear call stand among them for comparison. Calls come from the whole dose curve; as a rule, active = well fitted cell-killing curve with a large enough effect; inconclusive = small, poorly fitted or top-dose-only effect, or effect the other way; inactive = flat fitted curve, though single readings scatter. Potencies beside an inconclusive call are fits to weak or partial responses and may not hold up.
# Test: qHTS assay for MDR1-selective chemotherapeutics: Primary screen using the drug-selected MDR subline cells KB-V1; note: nearly all actives have a fitted effect of over 60% in size
# Details: KB-V1 MDR cells viability, CellTiter-Glo, 72 h; series mostly up to 46.1 µM
# Outline: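 Potencies derive from concentration-effect curves fitted to normalized luminescence (CellTiter-Glo) of KB-V1 cells treated for 72 h at 37 degrees C in phenol-red-free DMEM containing 10% FBS.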
# Potency is the fitted concentration of half-maximal effect.
row,SMILES,Potency
1,O=C1OC(c2ccc(O)cc2)(c2ccccc2O)c2ccccc21 (stereo not drawn),inactive
2,Cc1ccc(S(=O)(=O)c2nc(-c3ccco3)oc2N2CCC(C)CC2)cc1,"inconclusive: 6.51 µM [cytotoxic, partial curve]"
3,O=C(c1ccc2c(c1)OCO2)N1CCN(c2ccc(C(F)(F)F)cn2)CC1,inactive
4,COc1cc(OC)nc(Nc2nc(C(N)Cc3ccc(Cl)cc3)cs2)n1 (stereo not drawn),"inconclusive: 25.9 µM [cytotoxic, single point]"
5,COc1ccc(C(=O)N/N=C(\C)c2cccc(NC(=O)c3ccc(F)cc3)c2)c(OC)c1,"inconclusive: 7.31 µM [cytotoxic, partial curve, poor fit]"
6,COCCn1c(SCC(=O)NC2CC2)nc2ccccc21,inactive
7,CCOc1ccc(-c2nc(S(=O)(=O)c3ccccc3)c(N3CCC(C(N)=O)CC3)o2)cc1,"inconclusive: 4.11 µM [rising, full curve, poor fit]"
8,O=S(=O)(c1ccc2ccccc2c1)N1CCN(Cc2ccccn2)CC1,"inconclusive: 18.4 µM [cytotoxic, single point]"
9,Cc1c(-c2nc(N)nc(Nc3ccc(F)cc3)n2)oc2ccccc12,"inconclusive: 29.1 µM [cytotoxic, single point]"
10,COc1cccc(OC)c1OCCNCC1CSc2ccccc2O1 (stereo not drawn),"inconclusive: 6.51 µM [cytotoxic, full curve, poor fit]"
11,Cc1cc(C(=O)COC(=O)Cc2ccc(Br)cc2)c(C)n1C,inactive
12,CC(C)(C)OC(=O)N1C(=O)[C@](OC(=O)c2ccccc2)(c2ccc(F)cc2)c2ccccc21,"inconclusive: 16.4 µM [cytotoxic, partial curve, poor fit]"
13,O=C(NCCc1ccccc1)C1Cc2c(-c3ccccc3)ccnc2O1 (stereo not drawn),"inconclusive: 25.9 µM [cytotoxic, single point]"
14,CC(C)N(Cc1nccn1C)C(=O)c1ccc2oc(CCCc3ccccc3)nc2c1,"inconclusive: 5.17 µM [cytotoxic, partial curve, poor fit]"
15,c1ccc(-c2nnc(SCC3CCCCO3)nc2-c2ccccc2)cc1 (stereo not drawn),"inconclusive: 14.6 µM [cytotoxic, partial curve]"
16,CC(=O)[C@@H]1[C@@H](C(=O)c2ccccc2)[C@]2(C(=O)Nc3ccccc32)[C@H]2C=Cc3cc(F)ccc3N12,"inconclusive: 20.6 µM [cytotoxic, partial curve, poor fit]"
17,COC(=O)C1CCCN1S(=O)(=O)c1ccc([N+](=O)[O-])cc1 (stereo not drawn),inactive
18,CCOC(=O)C1=C(CN2CCc3ccccc32)NC(=O)NC1c1cc(C)ccc1C (stereo not drawn),"inconclusive: 14.1 µM [cytotoxic, partial curve]"

# Looked up by structure from above:
row,SMILES,Potency
18,CCOC(=O)C1=C(CN2CCc3ccccc32)NC(=O)NC1c1cc(C)ccc1C (stereo not drawn),"inconclusive: 14.1 µM [cytotoxic, partial curve]"
6,COCCn1c(SCC(=O)NC2CC2)nc2ccccc21,inactive
